In patent publication WO2014037419A1 (dated 2014) one finds binding data, which are given here for five molecules.

To fix the notation:
B1: NbhCD74n1 (VHH)
VHH: QVQLQESGGGLVQPGGSLRLSCAASGFTFSSYWMYWVRQAPGKGLEWVSGINTGGGSTYYADSVKGRFTISRDNAKNTLYLQMNSLKSEDTAVYYCATWAYSDYDPQYDYWGQGTQVTVSS
B2: NbhCD74n5 (VHH)
VHH: QVQLQESGGGLVQAGGSLRLSCADSGFTFDDYAIGWFRQAPGKEREGVSCISSSDGSTYYADSVKGRFTISSDNAKNTVYLQMNSLKPEDTAVYYCAALELPGIKWGAETRWDRWAEYDYWGQGTQVTVSS
B3: NbhCD74n6 (VHH)
VHH: QVQLQESGGGLVQPGGSLRLSCAASGFTFSSSAMSWVRQAPGKGLEWVSSIYSYTSNTYYADSVKGRFTISTDNAKNTLYLQMNSLKSEDTAVYYCAYGEDFSSWGQGTQVTVSS
B4: NbhCD74n9 (VHH)
VHH: B3 VHH with Q5V, L11S, A33V, T55S, S56Y
B5: NbhCD74n4 (VHH)
VHH: QVQLVESGGALVQPGGSLRLSCAASGFSFSSYFMSWVRQAPGKGLEWVSSINSGGGSTYYATSVKGRFTISRDNAKNTLYLQMNSLKPEDTAVYYCTSQDWHYWGKGTQVTVSS

Changes are numbered by the printed parent chain. No constants are given. Whether binding was seen depends on the method and setting. Binding calls can cover weak binding; strength is not graded here.

For the experiment, the target named is Recombinant human CD74 73-232 (human). Briefly: panning and screening of phage library clones on recombinant human CD74 73-232.
For the molecule B1, the binding result is recorded as “binds”.

Take B2: the binding result is “binds”.

For B3, the binding entry is given as “binds”.

With B4, the binding entry was “binds”.

In the case of B5, the binding result is reported as “binds”.
